Data published in patent US4168263 (dated 1979).
The star is where a group is joined. Cbz = O=C(OCc1ccccc1)*; Boc = CC(C)(C)OC(=O)*

Test: general procedure: solution-phase peptide synthesis; OSu active ester, Et3N
Conditions: coupling step

Boc-K(Cbz)K(Cbz)K(Cbz)G-OEt
step yield: 72%

Boc-K(Cbz)K(Cbz)K(Cbz)K(Cbz)G-OEt
step yield: 73%
